# Counter-ions that a name gives are not always drawn. This is one part of the list. This data set is noisy: repeats of one test often differ as much as different tests do.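 A screen tested FDA-approved drugs combined with one-eighth-MIC colistin against a clinical mcr-1-positive, multidrug-resistant E. coli isolate, measuring OD600 at 24 h. Controls were untreated bacteria (growth) and broth alone (blank). An OD600 under 0.2 marked a combination as active.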
# System: Escherichia coli 42 (mcr-1-positive clinical isolate)
# Assay: OD600 after 24 h growth with compound plus colistin (absorbance units (OD600)); higher = more bacterial growth (less inhibition)
# Conditions: first compound 25 µM; colistin concentration 0.5 ug/mL; incubation time 24 h; 37 °C
row,Structure (SMILES),OD600
1,C[C@@H](NCCCc1cccc(C(F)(F)F)c1)c1cccc2ccccc12 [Cinacalcet hydrochloride] + CCC(C)CCCC(=O)N[C@@H](CCN)C(=O)N[C@H](C(=O)N[C@@H](CCN)C(=O)N[C@H]1CCNC(=O)[C@H]([C@@H](C)O)NC(=O)[C@H](CCN)NC(=O)[C@H](CCN)NC(=O)[C@H](CC(C)C)NC(=O)[C@@H](CC(C)C)NC(=O)[C@H](CCN)NC1=O)[C@@H](C)O [colistin],active: 0.052
2,CN/C(=N\CCSCc1nc[nH]c1C)NC#N [Cimetidine] + CCC(C)CCCC(=O)N[C@@H](CCN)C(=O)N[C@H](C(=O)N[C@@H](CCN)C(=O)N[C@H]1CCNC(=O)[C@H]([C@@H](C)O)NC(=O)[C@H](CCN)NC(=O)[C@H](CCN)NC(=O)[C@H](CC(C)C)NC(=O)[C@@H](CC(C)C)NC(=O)[C@H](CCN)NC1=O)[C@@H](C)O [colistin],inactive: 1.09
3,CN(C)CCCN1c2ccccc2Sc2ccc(Cl)cc21 [Chlorpromazine hydrochloride] + CCC(C)CCCC(=O)N[C@@H](CCN)C(=O)N[C@H](C(=O)N[C@@H](CCN)C(=O)N[C@H]1CCNC(=O)[C@H]([C@@H](C)O)NC(=O)[C@H](CCN)NC(=O)[C@H](CCN)NC(=O)[C@H](CC(C)C)NC(=O)[C@@H](CC(C)C)NC(=O)[C@H](CCN)NC1=O)[C@@H](C)O [colistin],inactive: 0.887
4,C[C@H](CCC(=O)O)[C@H]1CC[C@H]2[C@@H]3[C@@H](O)C[C@@H]4C[C@H](O)CC[C@]4(C)[C@H]3CC[C@]12C [Ursodeoxycholic acid] + CCC(C)CCCC(=O)N[C@@H](CCN)C(=O)N[C@H](C(=O)N[C@@H](CCN)C(=O)N[C@H]1CCNC(=O)[C@H]([C@@H](C)O)NC(=O)[C@H](CCN)NC(=O)[C@H](CCN)NC(=O)[C@H](CC(C)C)NC(=O)[C@@H](CC(C)C)NC(=O)[C@H](CCN)NC1=O)[C@@H](C)O [colistin],inactive: 0.645
5,CCN1CCCC1CNC(=O)c1cc(S(=O)(=O)CC)c(N)cc1OC (centres undefined) [Amisulpride] + CCC(C)CCCC(=O)N[C@@H](CCN)C(=O)N[C@H](C(=O)N[C@@H](CCN)C(=O)N[C@H]1CCNC(=O)[C@H]([C@@H](C)O)NC(=O)[C@H](CCN)NC(=O)[C@H](CCN)NC(=O)[C@H](CC(C)C)NC(=O)[C@@H](CC(C)C)NC(=O)[C@H](CCN)NC1=O)[C@@H](C)O [colistin],inactive: 1
6,O=c1ccc2ccc(OCCCCN3CCN(c4cccc5sccc45)CC3)cc2[nH]1 [Brexpiprazole] + CCC(C)CCCC(=O)N[C@@H](CCN)C(=O)N[C@H](C(=O)N[C@@H](CCN)C(=O)N[C@H]1CCNC(=O)[C@H]([C@@H](C)O)NC(=O)[C@H](CCN)NC(=O)[C@H](CCN)NC(=O)[C@H](CC(C)C)NC(=O)[C@@H](CC(C)C)NC(=O)[C@H](CCN)NC1=O)[C@@H](C)O [colistin],inactive: 0.914
7,CCOc1nc2cccc(C(=O)OC(C)OC(=O)OC3CCCCC3)c2n1Cc1ccc(-c2ccccc2-c2nn[nH]n2)cc1 (centres undefined) [Candesartan Cilexetil] + CCC(C)CCCC(=O)N[C@@H](CCN)C(=O)N[C@H](C(=O)N[C@@H](CCN)C(=O)N[C@H]1CCNC(=O)[C@H]([C@@H](C)O)NC(=O)[C@H](CCN)NC(=O)[C@H](CCN)NC(=O)[C@H](CC(C)C)NC(=O)[C@@H](CC(C)C)NC(=O)[C@H](CCN)NC1=O)[C@@H](C)O [colistin],inactive: 1.13
8,CCOC(=O)[C@H](CCc1ccccc1)N[C@@H](C)C(=O)N1[C@H](C(=O)O)C[C@@H]2CCC[C@@H]21 [Ramipril] + CCC(C)CCCC(=O)N[C@@H](CCN)C(=O)N[C@H](C(=O)N[C@@H](CCN)C(=O)N[C@H]1CCNC(=O)[C@H]([C@@H](C)O)NC(=O)[C@H](CCN)NC(=O)[C@H](CCN)NC(=O)[C@H](CC(C)C)NC(=O)[C@@H](CC(C)C)NC(=O)[C@H](CCN)NC1=O)[C@@H](C)O [colistin],inactive: 0.891
9,COc1ccc(Cl)cc1C(=O)NCCc1ccc(S(=O)(=O)NC(=O)NC2CCCCC2)cc1 [Glibenclamide] + CCC(C)CCCC(=O)N[C@@H](CCN)C(=O)N[C@H](C(=O)N[C@@H](CCN)C(=O)N[C@H]1CCNC(=O)[C@H]([C@@H](C)O)NC(=O)[C@H](CCN)NC(=O)[C@H](CCN)NC(=O)[C@H](CC(C)C)NC(=O)[C@@H](CC(C)C)NC(=O)[C@H](CCN)NC1=O)[C@@H](C)O [colistin],inactive: 0.978

# Look-ups from the results shown:
# In OD600, C[C@@H](NCCCc1cccc(C(F)(F)F)c1)c1cccc2ccccc12 [Cinacalcet hydrochloride] + CCC(C)CCCC(=O)N[C@@H](CCN)C(=O)N[C@H](C(=O)N[C@@H](CCN)C(=O)N[C@H]1CCNC(=O)[C@H]([C@@H](C)O)NC(=O)[C@H](CCN)NC(=O)[C@H](CCN)NC(=O)[C@H](CC(C)C)NC(=O)[C@@H](CC(C)C)NC(=O)[C@H](CCN)NC1=O)[C@@H](C)O [colistin] is entered as active: 0.052
# In OD600, CN(C)CCCN1c2ccccc2Sc2ccc(Cl)cc21 [Chlorpromazine hydrochloride] + CCC(C)CCCC(=O)N[C@@H](CCN)C(=O)N[C@H](C(=O)N[C@@H](CCN)C(=O)N[C@H]1CCNC(=O)[C@H]([C@@H](C)O)NC(=O)[C@H](CCN)NC(=O)[C@H](CCN)NC(=O)[C@H](CC(C)C)NC(=O)[C@@H](CC(C)C)NC(=O)[C@H](CCN)NC1=O)[C@@H](C)O [colistin] is entered as inactive: 0.887
